In the supplement of paper PMC12819154, “High-throughput peptide-centric local stability assay extends protein–ligand identification to membrane proteins, tissues and bacteria” (Nature Structural & Molecular Biology, 2025) one finds log2 fold change data, which are given here for 26 targets.

By UniProt entry, the sequences of proteins in these tests, tags left out. Where a name states a change or a piece, a line headed by the entry shows the natural chain unless it says otherwise.
UniProt O96019, whole entry: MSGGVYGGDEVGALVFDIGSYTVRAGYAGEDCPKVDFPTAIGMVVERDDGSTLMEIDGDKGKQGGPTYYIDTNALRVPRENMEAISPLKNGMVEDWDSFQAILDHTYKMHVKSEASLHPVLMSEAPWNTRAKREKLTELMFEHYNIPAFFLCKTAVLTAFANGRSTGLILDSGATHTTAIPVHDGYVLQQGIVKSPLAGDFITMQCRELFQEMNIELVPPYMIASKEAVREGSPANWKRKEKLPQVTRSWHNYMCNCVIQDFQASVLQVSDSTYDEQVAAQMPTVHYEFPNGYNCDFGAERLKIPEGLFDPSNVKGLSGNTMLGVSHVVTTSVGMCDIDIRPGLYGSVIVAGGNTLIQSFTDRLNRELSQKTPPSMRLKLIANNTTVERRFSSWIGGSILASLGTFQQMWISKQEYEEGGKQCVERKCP
UniProt O95104: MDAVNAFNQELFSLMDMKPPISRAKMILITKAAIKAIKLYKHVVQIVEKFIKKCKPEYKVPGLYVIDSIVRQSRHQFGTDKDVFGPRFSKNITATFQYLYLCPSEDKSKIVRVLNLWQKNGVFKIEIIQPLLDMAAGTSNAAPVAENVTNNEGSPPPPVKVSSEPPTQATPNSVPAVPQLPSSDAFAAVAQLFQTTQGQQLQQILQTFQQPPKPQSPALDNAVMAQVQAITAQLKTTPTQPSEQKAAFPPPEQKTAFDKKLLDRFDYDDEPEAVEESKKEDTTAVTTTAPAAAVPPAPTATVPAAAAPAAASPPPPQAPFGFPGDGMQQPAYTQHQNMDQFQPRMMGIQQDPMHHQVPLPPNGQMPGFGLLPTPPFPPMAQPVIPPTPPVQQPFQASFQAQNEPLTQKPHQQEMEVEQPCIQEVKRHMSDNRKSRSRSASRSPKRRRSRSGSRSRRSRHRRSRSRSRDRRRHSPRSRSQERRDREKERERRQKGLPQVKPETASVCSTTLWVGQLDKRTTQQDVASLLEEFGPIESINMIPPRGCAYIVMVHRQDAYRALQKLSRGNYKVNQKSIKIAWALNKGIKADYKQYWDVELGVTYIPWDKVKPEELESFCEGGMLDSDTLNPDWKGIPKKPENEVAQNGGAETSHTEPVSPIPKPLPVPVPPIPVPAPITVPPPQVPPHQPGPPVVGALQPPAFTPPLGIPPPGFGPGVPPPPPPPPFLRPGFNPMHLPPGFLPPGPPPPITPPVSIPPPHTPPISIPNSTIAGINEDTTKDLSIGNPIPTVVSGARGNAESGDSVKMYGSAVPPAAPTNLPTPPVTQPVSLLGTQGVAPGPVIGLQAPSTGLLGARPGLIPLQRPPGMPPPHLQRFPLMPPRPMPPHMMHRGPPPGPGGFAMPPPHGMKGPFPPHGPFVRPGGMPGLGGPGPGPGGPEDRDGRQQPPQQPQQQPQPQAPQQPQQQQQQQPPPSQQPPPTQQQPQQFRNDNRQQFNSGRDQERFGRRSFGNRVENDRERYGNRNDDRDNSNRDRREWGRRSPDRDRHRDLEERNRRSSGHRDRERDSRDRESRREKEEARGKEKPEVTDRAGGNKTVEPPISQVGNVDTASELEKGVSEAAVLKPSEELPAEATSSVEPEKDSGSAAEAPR
UniProt P00558: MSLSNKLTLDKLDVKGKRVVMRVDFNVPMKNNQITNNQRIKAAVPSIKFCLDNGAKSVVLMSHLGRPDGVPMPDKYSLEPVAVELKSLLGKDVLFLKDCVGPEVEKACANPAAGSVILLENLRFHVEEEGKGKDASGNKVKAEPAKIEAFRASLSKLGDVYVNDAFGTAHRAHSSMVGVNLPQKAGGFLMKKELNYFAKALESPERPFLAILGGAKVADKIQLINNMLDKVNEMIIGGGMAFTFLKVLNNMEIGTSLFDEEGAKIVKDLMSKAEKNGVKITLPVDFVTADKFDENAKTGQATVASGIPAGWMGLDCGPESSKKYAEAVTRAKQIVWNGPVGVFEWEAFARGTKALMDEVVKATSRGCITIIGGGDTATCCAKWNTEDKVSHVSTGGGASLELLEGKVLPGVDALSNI
UniProt O95208: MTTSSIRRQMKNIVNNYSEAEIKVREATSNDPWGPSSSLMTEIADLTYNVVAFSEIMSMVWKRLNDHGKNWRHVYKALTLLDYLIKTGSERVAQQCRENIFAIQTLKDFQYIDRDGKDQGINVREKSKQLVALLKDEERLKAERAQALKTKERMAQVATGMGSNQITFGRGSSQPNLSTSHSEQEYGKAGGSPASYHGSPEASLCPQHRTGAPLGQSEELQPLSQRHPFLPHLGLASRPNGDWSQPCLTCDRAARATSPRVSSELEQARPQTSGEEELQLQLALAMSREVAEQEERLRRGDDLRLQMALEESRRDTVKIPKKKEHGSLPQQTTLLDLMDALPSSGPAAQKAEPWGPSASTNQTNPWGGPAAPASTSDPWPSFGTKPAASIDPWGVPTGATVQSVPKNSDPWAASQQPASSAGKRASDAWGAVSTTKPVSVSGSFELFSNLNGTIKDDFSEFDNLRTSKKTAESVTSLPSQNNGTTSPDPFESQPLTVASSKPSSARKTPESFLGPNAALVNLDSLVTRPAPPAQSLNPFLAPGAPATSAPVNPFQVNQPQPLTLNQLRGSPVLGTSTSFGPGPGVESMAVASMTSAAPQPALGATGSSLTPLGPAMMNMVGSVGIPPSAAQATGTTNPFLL
UniProt O95168, whole entry: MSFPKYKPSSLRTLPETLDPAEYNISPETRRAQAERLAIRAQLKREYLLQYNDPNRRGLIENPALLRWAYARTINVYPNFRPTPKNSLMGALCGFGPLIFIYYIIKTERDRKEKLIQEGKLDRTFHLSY
UniProt O75909: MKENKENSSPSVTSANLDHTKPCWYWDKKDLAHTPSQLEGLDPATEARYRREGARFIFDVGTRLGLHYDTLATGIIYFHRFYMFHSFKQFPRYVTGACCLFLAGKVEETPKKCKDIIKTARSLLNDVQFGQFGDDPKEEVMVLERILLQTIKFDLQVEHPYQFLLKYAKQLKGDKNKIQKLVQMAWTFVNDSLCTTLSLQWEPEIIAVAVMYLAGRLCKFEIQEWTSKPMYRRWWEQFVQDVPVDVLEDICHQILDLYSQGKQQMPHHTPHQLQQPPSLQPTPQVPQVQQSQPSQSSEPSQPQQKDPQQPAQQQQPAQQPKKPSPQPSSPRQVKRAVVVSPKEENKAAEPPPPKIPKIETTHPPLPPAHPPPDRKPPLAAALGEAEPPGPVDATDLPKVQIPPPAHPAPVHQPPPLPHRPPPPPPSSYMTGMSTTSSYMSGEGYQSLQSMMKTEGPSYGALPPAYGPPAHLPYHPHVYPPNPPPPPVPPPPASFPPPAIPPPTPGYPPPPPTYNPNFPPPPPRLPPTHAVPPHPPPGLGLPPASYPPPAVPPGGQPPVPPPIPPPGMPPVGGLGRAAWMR
UniProt O95707: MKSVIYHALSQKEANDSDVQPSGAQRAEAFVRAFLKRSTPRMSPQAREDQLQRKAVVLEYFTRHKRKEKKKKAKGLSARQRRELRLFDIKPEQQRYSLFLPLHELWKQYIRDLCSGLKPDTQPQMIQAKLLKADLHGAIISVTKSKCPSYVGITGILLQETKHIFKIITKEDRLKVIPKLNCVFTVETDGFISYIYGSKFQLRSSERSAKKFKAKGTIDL
UniProt O75928, whole entry: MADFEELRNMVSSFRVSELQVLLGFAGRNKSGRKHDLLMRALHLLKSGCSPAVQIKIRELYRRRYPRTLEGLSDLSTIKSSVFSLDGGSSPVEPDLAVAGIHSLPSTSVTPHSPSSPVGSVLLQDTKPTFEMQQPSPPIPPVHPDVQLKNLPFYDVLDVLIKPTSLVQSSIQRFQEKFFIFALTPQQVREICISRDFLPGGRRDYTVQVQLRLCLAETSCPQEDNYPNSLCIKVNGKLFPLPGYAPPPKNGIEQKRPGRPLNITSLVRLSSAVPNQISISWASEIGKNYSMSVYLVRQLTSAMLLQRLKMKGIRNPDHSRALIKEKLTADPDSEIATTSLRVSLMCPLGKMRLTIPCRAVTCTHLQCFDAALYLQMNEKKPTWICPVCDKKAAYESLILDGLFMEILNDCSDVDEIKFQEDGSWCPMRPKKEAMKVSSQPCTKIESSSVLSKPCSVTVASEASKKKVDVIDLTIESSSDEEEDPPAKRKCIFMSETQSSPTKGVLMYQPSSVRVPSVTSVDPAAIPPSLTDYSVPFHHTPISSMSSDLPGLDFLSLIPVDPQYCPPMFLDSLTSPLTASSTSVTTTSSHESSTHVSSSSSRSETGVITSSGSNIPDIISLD
UniProt O94903: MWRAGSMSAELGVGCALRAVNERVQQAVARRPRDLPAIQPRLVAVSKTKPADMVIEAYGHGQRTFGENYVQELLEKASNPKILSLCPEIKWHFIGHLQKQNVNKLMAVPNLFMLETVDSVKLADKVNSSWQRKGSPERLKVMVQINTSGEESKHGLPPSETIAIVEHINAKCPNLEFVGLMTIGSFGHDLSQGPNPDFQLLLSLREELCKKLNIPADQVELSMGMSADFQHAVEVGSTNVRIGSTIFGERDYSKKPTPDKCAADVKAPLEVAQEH
UniProt O75489, whole entry: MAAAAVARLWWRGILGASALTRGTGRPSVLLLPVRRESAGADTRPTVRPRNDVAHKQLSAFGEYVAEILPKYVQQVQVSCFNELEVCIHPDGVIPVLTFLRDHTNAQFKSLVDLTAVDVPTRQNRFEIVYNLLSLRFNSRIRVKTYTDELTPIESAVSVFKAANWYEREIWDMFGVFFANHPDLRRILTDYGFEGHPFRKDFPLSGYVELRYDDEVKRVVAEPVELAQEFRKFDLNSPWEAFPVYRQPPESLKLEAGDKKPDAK
UniProt O95251, whole entry: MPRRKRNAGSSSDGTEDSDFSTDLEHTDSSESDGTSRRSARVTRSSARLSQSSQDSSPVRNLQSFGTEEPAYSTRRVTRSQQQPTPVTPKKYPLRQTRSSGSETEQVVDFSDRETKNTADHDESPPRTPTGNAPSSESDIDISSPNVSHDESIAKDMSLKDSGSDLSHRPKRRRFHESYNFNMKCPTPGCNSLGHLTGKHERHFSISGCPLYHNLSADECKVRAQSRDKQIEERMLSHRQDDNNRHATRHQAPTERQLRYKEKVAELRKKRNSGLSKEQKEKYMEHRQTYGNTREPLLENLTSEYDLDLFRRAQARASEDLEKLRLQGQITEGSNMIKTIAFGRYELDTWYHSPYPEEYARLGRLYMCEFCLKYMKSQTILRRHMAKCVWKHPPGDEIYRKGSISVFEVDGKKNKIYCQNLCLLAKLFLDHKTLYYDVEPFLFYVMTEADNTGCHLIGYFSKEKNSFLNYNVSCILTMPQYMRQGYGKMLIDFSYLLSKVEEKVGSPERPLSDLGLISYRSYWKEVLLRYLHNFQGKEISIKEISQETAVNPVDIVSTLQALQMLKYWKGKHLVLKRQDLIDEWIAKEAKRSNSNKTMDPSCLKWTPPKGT
UniProt O95997: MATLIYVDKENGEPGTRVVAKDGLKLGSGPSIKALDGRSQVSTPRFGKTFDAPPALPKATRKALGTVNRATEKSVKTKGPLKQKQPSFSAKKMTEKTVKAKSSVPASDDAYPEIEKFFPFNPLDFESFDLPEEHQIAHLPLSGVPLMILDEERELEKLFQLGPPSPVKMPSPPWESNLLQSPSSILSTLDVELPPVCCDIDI
UniProt O95931, whole entry: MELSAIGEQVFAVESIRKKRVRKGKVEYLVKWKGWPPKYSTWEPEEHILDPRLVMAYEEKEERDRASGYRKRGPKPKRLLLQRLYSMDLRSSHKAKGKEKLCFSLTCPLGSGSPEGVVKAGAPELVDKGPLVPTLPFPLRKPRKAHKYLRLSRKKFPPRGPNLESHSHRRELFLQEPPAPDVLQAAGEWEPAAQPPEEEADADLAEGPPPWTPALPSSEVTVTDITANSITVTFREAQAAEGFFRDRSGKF
UniProt O95243: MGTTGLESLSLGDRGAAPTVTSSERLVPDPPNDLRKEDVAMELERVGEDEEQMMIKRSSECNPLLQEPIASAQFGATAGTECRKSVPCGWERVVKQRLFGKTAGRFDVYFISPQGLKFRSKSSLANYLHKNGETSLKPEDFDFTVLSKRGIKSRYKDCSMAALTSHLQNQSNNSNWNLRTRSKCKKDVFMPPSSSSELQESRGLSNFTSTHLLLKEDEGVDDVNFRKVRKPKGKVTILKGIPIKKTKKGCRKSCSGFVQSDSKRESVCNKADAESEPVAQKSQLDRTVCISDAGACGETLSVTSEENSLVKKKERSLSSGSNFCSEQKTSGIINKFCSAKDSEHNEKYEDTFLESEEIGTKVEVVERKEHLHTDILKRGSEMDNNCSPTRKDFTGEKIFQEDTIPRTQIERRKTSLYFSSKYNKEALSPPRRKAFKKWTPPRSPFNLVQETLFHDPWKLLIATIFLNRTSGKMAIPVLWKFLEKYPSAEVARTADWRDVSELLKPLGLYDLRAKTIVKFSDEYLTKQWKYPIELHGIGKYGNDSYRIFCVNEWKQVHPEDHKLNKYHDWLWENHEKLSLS
UniProt P00568: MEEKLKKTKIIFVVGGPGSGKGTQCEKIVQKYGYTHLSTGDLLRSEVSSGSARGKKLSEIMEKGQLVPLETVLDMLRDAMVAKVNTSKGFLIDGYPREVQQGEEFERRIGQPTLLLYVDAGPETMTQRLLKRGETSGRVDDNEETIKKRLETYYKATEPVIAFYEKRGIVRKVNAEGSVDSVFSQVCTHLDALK

This is one part of the list. Most values lie at the level of the controls, where differences are scatter.

Compound in this experiment: Cc1nc(Nc2ncc(C(=O)Nc3c(C)cccc3Cl)s2)cc(N2CCN(CCO)CC2)n1 [dasatinib]
Description: log2 fold change of tryptic peptide abundance, ligand vs vehicle (limited proteolysis) (log2 ratio); higher = more trypsin-susceptible (destabilized). Conditions: ligand concentration: 5 uM; sample: K562 cleared lysate.
“UniProt O95166 (peptide sequence: FVYKEEHPFEK, peptide start residue: 3)”: the log2 fold change is -0.19.

Turning to “ACTL6A (peptide sequence: ENMEAISPLK, peptide start residue: 80) (UniProt O96019)”, the log2 fold change is -0.186. The same measure for “UniProt O95104 (peptide sequence: GNAESGDSVK, peptide start residue: 794)”: -0.122; for “PGK1 (peptide sequence: NNQITNNQR, peptide start residue: 31) (UniProt P00558)”: -0.0906; for “EPN2 (peptide sequence: GSSQPNLSTSHSEQEYGK, peptide start residue: 171) (UniProt O95208)”: 0.462.

As for “SURF6 (peptide sequence: MKWTNLLYK, peptide start residue: 268) (UniProt O75683)”, the log2 fold change is -0.194. As for “NDUFB4 (peptide sequence: TINVYPNFRPTPK, peptide start residue: 73) (UniProt O95168)”, the log2 fold change was -0.517. Then “STAM2 (peptide sequence: HGEIIIVLDDSDANWWKGENHR, peptide start residue: 225) (UniProt O75886)”, with 0.131; and “CCNK (peptide sequence: AAEPPPPKIPK, peptide start residue: 347) (UniProt O75909)”, with -0.207; and “MOCS2 (peptide sequence: LPLSPPLVEDSAFEPSRK, peptide start residue: 17) (UniProt O96007)”, with 0.887.

As for “POP4 (peptide sequence: SVIYHALSQKEANDSDVQPSGAQR, peptide start residue: 3) (UniProt O95707)”, the log2 fold change was 0.173. The same measure for “CLPX (peptide sequence: FVKCEKCHHFFVVLSEADSK, peptide start residue: 124) (UniProt O76031)”: -0.635; for “PIAS2 (peptide sequence: VSSQPCTK, peptide start residue: 436) (UniProt O75928)”: -0.427; for “UniProt O94903 (peptide sequence: HGLPPSETIAIVEHINAK, peptide start residue: 154)”: 0.176. The same measure for “NDUFS3 (peptide sequence: ILTDYGFEGHPFR, peptide start residue: 187) (UniProt O75489)”: 0.362; for “UniProt O95251 (peptide sequence: YLHNFQGK, peptide start residue: 530)”: -0.161.

As to “PTTG1 (peptide sequence: LFQLGPPSPVK, peptide start residue: 158) (UniProt O95997)”, the log2 fold change is -0.317. Take “PRKD3 (peptide sequence: LHGDMLEMILSSEK, peptide start residue: 630) (UniProt O94806)”: the log2 fold change came out at 0.19. With “UniProt O75582 (peptide sequence: SLTCTSAVEIMKK, peptide start residue: 628)”, the log2 fold change was -0.899. For “AP2A1 (peptide sequence: FINLFPETK, peptide start residue: 548) (UniProt O95782)”, the log2 fold change is -0.206. Then “LYPLA2 (peptide sequence: TYPGVMHSSCPQEMAAVK, peptide start residue: 204) (UniProt O95372)”, with -0.143; and “UniProt O95931 (peptide sequence: LVMAYEEKEER, peptide start residue: 53)”, with -0.0459; and “MBD4 (peptide sequence: MAIPVLWK, peptide start residue: 473) (UniProt O95243)”, with -0.523. In the case of “UniProt O94983 (peptide sequence: RAAVLIQQHYR, peptide start residue: 1126)”, the log2 fold change was -0.718. Then “PSIP1 (peptide sequence: NFQTAHRR, peptide start residue: 293) (UniProt O75475)”, with -1.06; and “AK1 (peptide sequence: VDDNEETIKKR, peptide start residue: 139) (UniProt P00568)”, with -0.225.
